Assay results reported in patent US20050250709A1, “Anti-neoplastic agents, combination therapies and related methods” (Bionaut Pharmaceuticals, priority 2003, published 2005).
At least one compound was matched to its structure with a doubt left.

System: EGF, HIF responsive cell line (HIF-responsive reporter gene)
Test: reporter gene assay in EGF, HIF responsive cancer cell line
Type: cell-based
Conditions: single agents, screen of thousands of compounds
Method: Cancer cell lines (Panc1, for pancreatic cancer, and A549 for non-small cell lung carcinoma) were transfected with the construct depicted in FIG. 1. The retroviral vector contained a […] gene (a negative selection marker), a zeocin resistance marker (a positive selection marker) and a gene encoding beta-galactosidase “β-gal”, as a reporter gene.
Cells were grown to a significant cell density and exposed to zeocin, so as to select for cells expressing the zeocin marker in the presence of high levels of extracellular signaling. […] Under these conditions, cells were exposed to an agent such as ganciclovir that causes lethality in TK+ cells. This selection step eliminated those cells containing a nucleic acid construct that is expressed at significant levels even in low extracellular signaling conditions. The resulting cells were then used for further study.
An EGF, HIF responsive cell line was screened for compounds affecting the regulated gene expression. Thousands of compounds were screened.

CC(O)(CS(=O)(=O)c1ccc(F)cc1)C(=O)Nc1ccc(C#N)c(C(F)(F)F)c1 (stereo not shown) [bicalutamide]
effect on regulated reporter gene expression (screen): effective
